Paper PMC9980208

By UniProt entry, the sequences of proteins in these tests, tags left out.
UniProt P62318: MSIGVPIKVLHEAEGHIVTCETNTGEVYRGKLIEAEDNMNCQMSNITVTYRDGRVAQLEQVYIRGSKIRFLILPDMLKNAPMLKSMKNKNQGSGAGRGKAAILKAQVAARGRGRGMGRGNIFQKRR

Target: T1, recombinant 6His-tagged TDRD1 eTD4 (human) (UniProt Q9BXT4)
T1 sequence: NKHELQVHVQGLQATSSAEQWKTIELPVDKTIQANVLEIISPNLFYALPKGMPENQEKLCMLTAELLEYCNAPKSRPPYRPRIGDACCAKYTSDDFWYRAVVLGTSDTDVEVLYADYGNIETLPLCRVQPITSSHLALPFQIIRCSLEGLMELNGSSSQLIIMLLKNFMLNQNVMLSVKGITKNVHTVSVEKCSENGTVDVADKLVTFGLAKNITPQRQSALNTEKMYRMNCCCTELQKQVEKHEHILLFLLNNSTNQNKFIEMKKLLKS
Assay: affinity purification with mass spectrometry; purified 6His-tagged eTD4 as bait (BSA as control bait), VCaP cell cytoplasmic fraction as input, Ni-NTA beads, SDS-PAGE, in-gel digestion, nanoHPLC-MS/MS, iBAQ; only the target purified

- binding: binds
Substance: endogenous SNRPD3 (from UniProt P62318 1-126)

These are yes or no findings as the source states them, for the method shown. Binding seen in cells or lysates may run through a third protein. These calls come from enrichment with a bait or labelling near it, and not all partners need be listed. Sequences can lack the tags named with a protein.
